Results reported in the supplement of paper PMC10849652.
The other results are listed elsewhere or left out.

The chains behind the UniProt entries cited, without tags or fusion partners. Where a name states a change or a piece, a line headed by the entry shows the natural chain unless it says otherwise.
UniProt P46734: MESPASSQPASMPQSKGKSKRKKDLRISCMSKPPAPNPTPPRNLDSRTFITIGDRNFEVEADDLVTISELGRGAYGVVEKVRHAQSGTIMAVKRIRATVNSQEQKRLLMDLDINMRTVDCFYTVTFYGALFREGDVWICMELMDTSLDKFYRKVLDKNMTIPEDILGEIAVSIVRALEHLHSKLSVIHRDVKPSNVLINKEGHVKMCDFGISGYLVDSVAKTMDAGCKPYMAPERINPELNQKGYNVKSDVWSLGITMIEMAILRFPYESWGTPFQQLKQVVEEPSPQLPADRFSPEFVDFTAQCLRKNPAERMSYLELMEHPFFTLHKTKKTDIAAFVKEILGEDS
UniProt P55145: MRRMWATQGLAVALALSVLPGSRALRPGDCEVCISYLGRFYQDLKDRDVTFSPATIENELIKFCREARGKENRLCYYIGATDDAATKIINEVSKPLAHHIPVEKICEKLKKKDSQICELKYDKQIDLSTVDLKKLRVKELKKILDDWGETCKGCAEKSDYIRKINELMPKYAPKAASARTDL
UniProt Q9UI95, whole entry, looked up: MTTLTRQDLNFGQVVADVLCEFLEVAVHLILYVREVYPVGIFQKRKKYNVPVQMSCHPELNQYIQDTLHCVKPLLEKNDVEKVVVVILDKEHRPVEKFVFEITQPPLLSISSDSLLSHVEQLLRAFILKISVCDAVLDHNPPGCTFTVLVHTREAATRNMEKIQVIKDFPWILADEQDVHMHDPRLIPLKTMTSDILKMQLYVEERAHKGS
UniProt O00754: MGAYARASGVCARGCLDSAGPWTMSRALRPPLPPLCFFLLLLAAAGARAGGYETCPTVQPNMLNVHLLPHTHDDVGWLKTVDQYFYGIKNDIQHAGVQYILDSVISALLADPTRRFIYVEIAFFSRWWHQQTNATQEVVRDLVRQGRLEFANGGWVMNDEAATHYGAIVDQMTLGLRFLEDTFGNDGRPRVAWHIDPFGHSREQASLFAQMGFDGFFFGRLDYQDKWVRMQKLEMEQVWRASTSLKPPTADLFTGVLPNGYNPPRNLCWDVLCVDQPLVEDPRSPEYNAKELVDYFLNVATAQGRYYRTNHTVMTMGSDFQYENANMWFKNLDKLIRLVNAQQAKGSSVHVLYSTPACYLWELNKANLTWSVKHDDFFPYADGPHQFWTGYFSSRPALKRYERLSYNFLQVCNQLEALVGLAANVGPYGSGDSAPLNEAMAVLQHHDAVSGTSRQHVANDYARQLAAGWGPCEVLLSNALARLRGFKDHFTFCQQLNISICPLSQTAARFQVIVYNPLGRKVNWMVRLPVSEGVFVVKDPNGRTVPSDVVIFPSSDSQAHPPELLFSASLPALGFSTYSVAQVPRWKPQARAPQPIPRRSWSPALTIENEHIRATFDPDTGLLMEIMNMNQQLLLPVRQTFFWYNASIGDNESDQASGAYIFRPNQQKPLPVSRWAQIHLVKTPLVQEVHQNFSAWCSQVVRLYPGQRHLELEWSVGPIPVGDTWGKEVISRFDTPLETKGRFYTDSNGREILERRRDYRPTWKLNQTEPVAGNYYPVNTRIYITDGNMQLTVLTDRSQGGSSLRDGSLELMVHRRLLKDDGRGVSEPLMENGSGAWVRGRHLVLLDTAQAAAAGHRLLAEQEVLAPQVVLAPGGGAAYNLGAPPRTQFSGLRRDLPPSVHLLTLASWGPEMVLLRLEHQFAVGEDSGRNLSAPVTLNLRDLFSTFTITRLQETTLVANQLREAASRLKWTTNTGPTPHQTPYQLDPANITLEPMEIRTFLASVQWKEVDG
UniProt Q6ZN28: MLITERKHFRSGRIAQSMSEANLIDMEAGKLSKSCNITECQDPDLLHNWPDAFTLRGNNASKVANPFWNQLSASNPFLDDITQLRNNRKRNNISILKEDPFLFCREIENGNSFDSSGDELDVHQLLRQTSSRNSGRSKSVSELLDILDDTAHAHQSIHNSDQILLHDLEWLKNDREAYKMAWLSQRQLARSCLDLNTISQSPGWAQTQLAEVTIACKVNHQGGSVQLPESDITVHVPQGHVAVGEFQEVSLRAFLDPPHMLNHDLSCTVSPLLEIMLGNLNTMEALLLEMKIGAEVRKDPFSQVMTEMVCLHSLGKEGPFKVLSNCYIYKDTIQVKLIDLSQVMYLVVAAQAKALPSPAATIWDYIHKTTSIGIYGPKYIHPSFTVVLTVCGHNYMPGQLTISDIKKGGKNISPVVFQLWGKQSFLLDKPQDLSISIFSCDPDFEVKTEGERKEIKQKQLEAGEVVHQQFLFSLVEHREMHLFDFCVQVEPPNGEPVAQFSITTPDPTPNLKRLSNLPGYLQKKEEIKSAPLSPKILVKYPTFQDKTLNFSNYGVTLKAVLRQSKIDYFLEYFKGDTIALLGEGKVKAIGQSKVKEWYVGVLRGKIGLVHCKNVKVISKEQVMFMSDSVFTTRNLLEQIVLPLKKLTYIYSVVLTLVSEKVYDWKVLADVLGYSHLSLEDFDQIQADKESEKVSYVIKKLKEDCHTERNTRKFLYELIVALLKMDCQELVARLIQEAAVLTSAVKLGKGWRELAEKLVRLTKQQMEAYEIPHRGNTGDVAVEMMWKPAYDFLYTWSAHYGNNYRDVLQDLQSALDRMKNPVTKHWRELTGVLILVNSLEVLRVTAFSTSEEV
UniProt Q5U5X0: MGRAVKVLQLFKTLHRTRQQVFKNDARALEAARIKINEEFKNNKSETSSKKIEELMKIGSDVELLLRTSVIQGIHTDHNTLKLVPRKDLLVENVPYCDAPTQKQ
UniProt Q16706: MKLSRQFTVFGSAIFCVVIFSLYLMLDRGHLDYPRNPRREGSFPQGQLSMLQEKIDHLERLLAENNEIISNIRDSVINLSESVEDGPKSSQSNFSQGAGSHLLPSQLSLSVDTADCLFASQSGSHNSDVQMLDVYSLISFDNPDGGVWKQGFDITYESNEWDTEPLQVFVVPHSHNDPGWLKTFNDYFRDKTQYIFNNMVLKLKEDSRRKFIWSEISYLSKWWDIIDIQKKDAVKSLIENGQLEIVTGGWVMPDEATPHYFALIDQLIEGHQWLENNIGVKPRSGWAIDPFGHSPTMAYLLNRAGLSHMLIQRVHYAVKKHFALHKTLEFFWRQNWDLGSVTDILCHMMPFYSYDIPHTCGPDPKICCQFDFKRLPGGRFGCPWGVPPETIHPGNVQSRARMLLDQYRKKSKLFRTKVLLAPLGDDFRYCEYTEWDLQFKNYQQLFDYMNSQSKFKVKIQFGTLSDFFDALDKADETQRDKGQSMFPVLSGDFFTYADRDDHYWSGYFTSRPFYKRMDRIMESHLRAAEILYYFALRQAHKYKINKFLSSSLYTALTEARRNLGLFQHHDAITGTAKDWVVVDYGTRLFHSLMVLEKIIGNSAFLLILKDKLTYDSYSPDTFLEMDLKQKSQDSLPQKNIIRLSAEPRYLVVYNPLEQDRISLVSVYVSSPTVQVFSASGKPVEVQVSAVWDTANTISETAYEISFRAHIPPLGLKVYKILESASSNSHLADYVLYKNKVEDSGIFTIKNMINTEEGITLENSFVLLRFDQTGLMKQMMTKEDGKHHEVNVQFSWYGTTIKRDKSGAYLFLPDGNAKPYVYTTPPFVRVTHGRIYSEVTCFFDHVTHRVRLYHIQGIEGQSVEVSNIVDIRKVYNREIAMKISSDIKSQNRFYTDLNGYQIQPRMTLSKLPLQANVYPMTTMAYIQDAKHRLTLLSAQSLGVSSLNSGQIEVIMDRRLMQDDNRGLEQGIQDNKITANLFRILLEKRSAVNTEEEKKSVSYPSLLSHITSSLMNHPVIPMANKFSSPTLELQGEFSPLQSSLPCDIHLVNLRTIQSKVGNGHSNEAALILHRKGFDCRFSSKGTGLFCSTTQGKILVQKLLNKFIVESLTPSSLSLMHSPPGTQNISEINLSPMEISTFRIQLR
UniProt P49641: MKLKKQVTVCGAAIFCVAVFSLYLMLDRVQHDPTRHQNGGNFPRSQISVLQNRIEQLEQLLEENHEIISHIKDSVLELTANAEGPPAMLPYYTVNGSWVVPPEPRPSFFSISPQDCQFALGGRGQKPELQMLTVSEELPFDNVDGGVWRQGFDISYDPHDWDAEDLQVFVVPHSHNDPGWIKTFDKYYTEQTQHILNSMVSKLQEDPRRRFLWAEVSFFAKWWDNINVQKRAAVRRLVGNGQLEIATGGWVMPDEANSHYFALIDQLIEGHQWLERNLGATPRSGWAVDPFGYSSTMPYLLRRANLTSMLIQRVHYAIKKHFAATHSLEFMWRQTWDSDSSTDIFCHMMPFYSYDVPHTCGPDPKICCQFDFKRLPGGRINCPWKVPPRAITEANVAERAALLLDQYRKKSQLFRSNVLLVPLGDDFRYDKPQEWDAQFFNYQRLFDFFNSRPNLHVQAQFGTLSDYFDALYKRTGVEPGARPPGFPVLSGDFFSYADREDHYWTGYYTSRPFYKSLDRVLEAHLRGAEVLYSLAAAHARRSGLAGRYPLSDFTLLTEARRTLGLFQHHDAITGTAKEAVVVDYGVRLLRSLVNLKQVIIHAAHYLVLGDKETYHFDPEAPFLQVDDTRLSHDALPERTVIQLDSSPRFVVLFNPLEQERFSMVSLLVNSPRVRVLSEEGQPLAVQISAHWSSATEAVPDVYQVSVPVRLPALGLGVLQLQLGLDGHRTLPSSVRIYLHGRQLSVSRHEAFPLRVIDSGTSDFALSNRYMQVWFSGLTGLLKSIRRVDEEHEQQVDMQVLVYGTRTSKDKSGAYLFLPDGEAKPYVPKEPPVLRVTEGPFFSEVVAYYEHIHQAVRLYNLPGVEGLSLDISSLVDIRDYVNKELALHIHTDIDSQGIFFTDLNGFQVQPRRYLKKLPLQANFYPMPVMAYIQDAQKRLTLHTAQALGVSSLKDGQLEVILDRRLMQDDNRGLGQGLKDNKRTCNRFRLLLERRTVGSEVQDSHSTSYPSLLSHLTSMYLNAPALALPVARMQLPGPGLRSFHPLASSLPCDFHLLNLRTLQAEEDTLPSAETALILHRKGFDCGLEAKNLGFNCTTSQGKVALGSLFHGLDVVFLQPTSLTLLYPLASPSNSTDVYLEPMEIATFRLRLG
UniProt P20645: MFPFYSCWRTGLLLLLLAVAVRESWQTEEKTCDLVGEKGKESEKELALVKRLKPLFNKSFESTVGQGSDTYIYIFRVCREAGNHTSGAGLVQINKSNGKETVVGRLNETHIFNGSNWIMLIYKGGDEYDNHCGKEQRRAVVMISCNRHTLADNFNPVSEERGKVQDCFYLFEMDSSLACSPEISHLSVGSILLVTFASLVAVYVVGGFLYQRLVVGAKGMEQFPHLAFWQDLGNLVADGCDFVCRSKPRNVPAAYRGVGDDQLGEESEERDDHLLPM
UniProt P27816: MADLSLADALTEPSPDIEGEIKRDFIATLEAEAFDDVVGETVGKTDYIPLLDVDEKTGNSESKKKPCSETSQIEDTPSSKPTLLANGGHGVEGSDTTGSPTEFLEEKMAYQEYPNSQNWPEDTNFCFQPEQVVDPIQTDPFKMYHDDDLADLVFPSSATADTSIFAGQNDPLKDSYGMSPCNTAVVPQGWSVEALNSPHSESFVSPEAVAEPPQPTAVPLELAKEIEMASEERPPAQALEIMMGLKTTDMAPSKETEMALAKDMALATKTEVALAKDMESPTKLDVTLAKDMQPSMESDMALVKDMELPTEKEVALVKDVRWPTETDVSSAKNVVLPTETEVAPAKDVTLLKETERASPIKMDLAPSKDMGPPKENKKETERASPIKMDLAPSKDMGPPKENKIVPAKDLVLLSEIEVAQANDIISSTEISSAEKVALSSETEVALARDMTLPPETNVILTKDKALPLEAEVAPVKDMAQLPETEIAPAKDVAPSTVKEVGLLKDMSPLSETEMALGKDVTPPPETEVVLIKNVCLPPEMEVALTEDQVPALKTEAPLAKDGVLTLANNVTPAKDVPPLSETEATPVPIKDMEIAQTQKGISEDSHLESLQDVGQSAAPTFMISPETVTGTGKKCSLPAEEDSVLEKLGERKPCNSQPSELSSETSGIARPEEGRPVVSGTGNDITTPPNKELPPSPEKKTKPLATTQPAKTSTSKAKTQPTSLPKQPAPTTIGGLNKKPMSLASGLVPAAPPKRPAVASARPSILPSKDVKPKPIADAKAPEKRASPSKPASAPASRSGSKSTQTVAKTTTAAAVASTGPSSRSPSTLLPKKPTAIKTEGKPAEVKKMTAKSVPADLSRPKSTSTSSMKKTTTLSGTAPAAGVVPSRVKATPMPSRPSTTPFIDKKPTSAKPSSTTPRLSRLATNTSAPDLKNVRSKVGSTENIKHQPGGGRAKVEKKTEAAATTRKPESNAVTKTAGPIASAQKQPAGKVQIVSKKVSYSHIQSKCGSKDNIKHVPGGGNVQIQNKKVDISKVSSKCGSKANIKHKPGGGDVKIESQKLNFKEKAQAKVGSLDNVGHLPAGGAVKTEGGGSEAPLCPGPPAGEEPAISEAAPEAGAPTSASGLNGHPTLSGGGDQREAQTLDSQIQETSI

Assays:
Experiment in all cases: log2 fold change, soluble protein after heating vs DMSO (PISA); higher = thermal stabilisation; K562 lysate, 10 uM; active = over 0.2 and 3.5 SD of the protein, either way, in both replicates (recomputed)
ibrutinib = compound: C=CC(=O)N1CCC[C@@H](n2nc(-c3ccc(Oc4ccccc4)cc3)c3c(N)ncnc32)C1 [ibrutinib]
Procedure, shortened: (§1)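 Pellets of K562 cells were dounce-homogenised in PBS pH 7.4 with 1 mM MgCl2, and the crude extract was held at 1 mg/mL protein for a 30 min treatment with 10 μM compound. Aliquots were heated for 3 min over 48°C-58°C and pooled before NP-40 was added to 0.5% at 4°C. The supernatant from 21,000xg for 90 min was quantified by TMTpro 16plex LC-MS/MS with channel sums equalised. Values are reported from duplicates as log-two fold change in thermal stability relative to solvent controls.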

[1] = compound: CC(=O)c1cnc2ccc(-c3cc(Cl)c(O)c(Cl)c3)nc2c1N[C@H]1CC[C@H](CN(C)C)CC1
Procedure, shortened: as §1

ralimetinib = compound: CC(C)(C)Cn1c(N)nc2ccc(-c3[nH]c(C(C)(C)C)nc3-c3ccc(F)cc3)nc21 [ralimetinib]
Procedure, shortened: as §1

[2] = compound: CC(C)(O)CC(=O)NCCn1ccc2ncnc(Nc3ccc(Oc4cccc(C(F)(F)F)c4)c(Cl)c3)c21
Procedure, shortened: as §1

[3] = compound: CC(C)C1=C2N=C(C=C(N2N=C1)NCC3=CC=CC=C3)NCCCCCCN
Procedure, shortened: as §1

[4] = compound: CC1=C(C(CC(=O)N1)C2=CC=C(C=C2)C(F)(F)F)C(=O)NC3=C(C=C4C(=C3)C=NN4)F
Procedure, shortened: as §1

[5] = compound: CC1=C(C2=C(C=C1)C(=O)C3=CC=CC=C3N2CCCN)C
Procedure, shortened: as §1

[6] = compound: CC1=C(C=C(C=C1)NC(=O)C2=CC(=CC=C2)C(C)(C)C#N)NC3=CC4=C(C=C3)N=CN(C4=O)C
Procedure, shortened: as §1

[7] = compound: CC1=C(C=C(C=C1)NC(=O)C2=CC(=CC=C2)N(C)C)NC(=O)C3=CC=C(C=C3)O
Procedure, shortened: as §1

[8] = compound: CC1=CC=C(C=C1)SC2=C3C=C(SC3=CN=C2)C(=O)N
Procedure, shortened: as §1

| Target | log2 fold change (ibrutinib) | log2 fold change [1] | log2 fold change (ralimetinib) | log2 fold change [2] | log2 fold change [3] | log2 fold change [4] | log2 fold change [5] | log2 fold change [6] | log2 fold change [7] | log2 fold change [8] |
| --- | --- | --- | --- | --- | --- | --- | --- | --- | --- | --- |
| MAP2K3 isoform 3 (UniProt P46734) | inactive: -0.041 | inactive: 0.095 | inactive: 0.012 | inactive: -0.008 | inactive: -0.15 | inactive: 0.019 | inactive: -0.095 | inactive: 0.021 | inactive: 0.123 | inactive: 0.114 |
| MARCKS (UniProt P29966) | inactive: 0.008 | inactive: 0.05 | inactive: 0 | inactive: 0.028 | inactive: -0.031 | inactive: 0.008 | inactive: -0.027 | inactive: -0.018 | inactive: -0.004 | inactive: 0.073 |
| LYN (UniProt P07948) | active: 1.15 | inactive: 0.141 | inactive: -0.068 | inactive: 0.068 | inactive: 0 | inactive: 0.003 | inactive: -0.043 | inactive: 0.479 | inactive: 0.007 | inactive: -0.126 |
| MAP2K2 (UniProt P36507) | inactive: 0.239 | active: 0.443 | inactive: -0.052 | inactive: 0.173 | inactive: -0.007 | inactive: -0.009 | inactive: -0.033 | inactive: -0.017 | inactive: 0.013 | inactive: -0.014 |
| MAGEA1 (UniProt P43355) | inactive: 0.075 | inactive: 0.074 | inactive: 0.028 | inactive: 0.014 | inactive: -0.002 | inactive: 0.038 | inactive: 0.007 | inactive: -0.077 | inactive: 0.019 | inactive: 0.064 |
| LTN1 isoform 3 (UniProt O94822) | inactive: -0.036 | inactive: 0.018 | inactive: 0.016 | inactive: -0.066 | inactive: 0.079 | inactive: 0.001 | inactive: -0.009 | inactive: -0.018 | inactive: 0.075 | inactive: 0.019 |
| MAPRE1 (UniProt Q15691) | inactive: -0.004 | inactive: 0.022 | inactive: -0.043 | inactive: 0.038 | inactive: 0.001 | inactive: -0.006 | inactive: 0.02 | inactive: -0.008 | inactive: -0.003 | inactive: 0.034 |
| MANF (UniProt P55145) | inactive: -0.002 | inactive: 0.003 | inactive: -0.036 | inactive: -0.01 | inactive: 0.012 | inactive: -0.008 | inactive: 0.035 | inactive: -0.019 | inactive: -0.033 | inactive: 0.006 |
| MAP1S (UniProt Q66K74) | inactive: -0.008 | inactive: -0.026 | inactive: 0.004 | inactive: -0.041 | inactive: -0.005 | inactive: 0.011 | inactive: -0.021 | inactive: 0 | inactive: 0.025 | inactive: 0.006 |
| MAP4 (UniProt E7EVA0) | inactive: 0.001 | inactive: -0.009 | inactive: -0.038 | inactive: -0.185 | inactive: 0.036 | inactive: -0.058 | inactive: 0.008 | inactive: 0.131 | inactive: 0.005 | inactive: -0.027 |
| MAD2L2 (UniProt Q9UI95) | inactive: -0.015 | inactive: -0.173 | inactive: 0.103 | inactive: -0.08 | inactive: -0.03 | inactive: -0.001 | inactive: -0.059 | inactive: 0.053 | inactive: -0.106 | inactive: -0.132 |
| MAGI1 isoform 6 (UniProt Q96QZ7) | inactive: 0.025 | inactive: -0.01 | inactive: -0.005 | inactive: -0.028 | inactive: 0.016 | inactive: -0.017 | inactive: -0.052 | inactive: 0.023 | inactive: 0.009 | inactive: 0.012 |
| MAT2A (UniProt P31153) | inactive: -0.019 | inactive: 0.006 | inactive: 0.014 | inactive: -0.023 | inactive: -0.02 | inactive: -0.002 | inactive: -0.004 | inactive: 0.008 | inactive: 0.012 | inactive: 0.001 |
| LTBP4 (UniProt Q8N2S1) | inactive: -0.074 | inactive: -0.077 | inactive: 0.135 | inactive: -0.095 | inactive: 0.011 | inactive: -0.037 | inactive: -0.067 | inactive: 0.011 | inactive: -0.149 | inactive: -0.018 |
| MAP2K4 isoform 2 (UniProt P45985) | inactive: 0.051 | inactive: 0.316 | inactive: -0.029 | inactive: -0.015 | inactive: 0.042 | inactive: -0.008 | inactive: 0.006 | inactive: -0.055 | inactive: 0.033 | inactive: -0.045 |
| MAN2B1 (UniProt O00754) | inactive: -0.02 | inactive: 0.007 | inactive: -0.041 | inactive: -0.006 | inactive: -0.023 | inactive: -0.026 | inactive: -0.008 | inactive: -0.132 | inactive: -0.017 | inactive: 0.018 |
| MAP11 (UniProt Q8WVR3) | inactive: 0.064 | inactive: 0.072 | inactive: 0.037 | inactive: -0.008 | inactive: -0.005 | inactive: 0.105 | inactive: -0.063 | inactive: 0.014 | inactive: -0.031 | inactive: 0.078 |
| LUC7L (UniProt Q9NQ29) | inactive: 0.007 | inactive: 0.003 | inactive: 0.008 | inactive: 0.027 | inactive: 0.056 | inactive: 0.002 | inactive: 0.007 | inactive: -0.04 | inactive: -0.01 | inactive: 0.02 |
| MACC1 (UniProt Q6ZN28) | inactive: 0.025 | inactive: -0.062 | inactive: 0.05 | inactive: -0.072 | inactive: -0.037 | inactive: 0.027 | inactive: -0.041 | inactive: 0.093 | inactive: 0.042 | inactive: -0.007 |
| LYRM7 (UniProt Q5U5X0) | inactive: 0.155 | inactive: -0.035 | inactive: -0.102 | inactive: 0.014 | inactive: 0.012 | inactive: 0.016 | inactive: -0.053 | inactive: 0.001 | inactive: -0.02 | inactive: -0.017 |
| MARCHF5 (UniProt Q9NX47) | inactive: 0.026 | inactive: 0.001 | inactive: 0.059 | inactive: -0.053 | inactive: 0.003 | inactive: -0.099 | inactive: -0.104 | inactive: 0.026 | inactive: -0.02 | inactive: -0.002 |
| MAPK14 (UniProt Q16539) | inactive: 0.042 | inactive: 0.238 | active: 1.16 | inactive: -0.008 | inactive: -0.06 | inactive: -0.14 | inactive: -0.026 | active: 0.88 | inactive: 0.455 | inactive: -0.007 |
| MAN2A1 (UniProt Q16706) | inactive: -0.04 | inactive: 0.013 | inactive: 0.043 | inactive: 0.017 | inactive: 0.016 | inactive: -0.001 | inactive: 0.037 | inactive: -0.008 | inactive: 0.044 | inactive: 0.019 |
| MAN2A2 (UniProt P49641) | inactive: 0.115 | inactive: 0.015 | inactive: 0.052 | inactive: -0.013 | inactive: 0.02 | inactive: -0.022 | inactive: 0.013 | inactive: -0.005 | inactive: -0.011 | inactive: -0.017 |
| M6PR (UniProt P20645) | inactive: -0.017 | inactive: 0.006 | inactive: 0.006 | inactive: 0.026 | inactive: -0.015 | inactive: 0.082 | inactive: -0.01 | inactive: -0.014 | inactive: 0.03 | inactive: -0.042 |
| LYZ (UniProt P61626) | inactive: -0.033 | inactive: 0.233 | inactive: -0.034 | inactive: 0.151 | inactive: 1.83 | inactive: 2.03 | inactive: 0.122 | inactive: 0.23 | inactive: -0.318 | inactive: -0.401 |
| MAP4 isoform 5 (UniProt P27816) | inactive: 0.172 | inactive: 0.027 | inactive: -0.1 | inactive: -0.166 | inactive: 0.03 | inactive: 0.048 | inactive: 0.019 | inactive: 0.012 | inactive: 0.082 | inactive: 0.047 |
| MACF1 isoform 3 (UniProt Q9UPN3) | inactive: 0 | inactive: -0.027 | inactive: 0.006 | inactive: -0.012 | inactive: 0 | inactive: 0.001 | inactive: 0.004 | inactive: 0.005 | inactive: 0.015 | inactive: 0.003 |
| MAEA (UniProt Q7L5Y9) | inactive: 0.037 | inactive: -0.018 | inactive: 0.028 | inactive: 0.028 | inactive: -0.02 | inactive: 0.01 | inactive: -0.01 | inactive: 0.022 | inactive: 0.01 | inactive: 0 |

In another format: results already given
Target	log2 fold change (ibrutinib)	log2 fold change [1]	log2 fold change (ralimetinib)	log2 fold change [2]	log2 fold change [3]	log2 fold change [4]	log2 fold change [5]	log2 fold change [6]	log2 fold change [7]	log2 fold change [8]
MAP1S (UniProt Q66K74)	inactive: -0.008	inactive: -0.026	inactive: 0.004	inactive: -0.041	inactive: -0.005	inactive: 0.011	inactive: -0.021	inactive: 0	inactive: 0.025	inactive: 0.006
MAP2K4 isoform 2 (UniProt P45985)	inactive: 0.051	inactive: 0.316	inactive: -0.029	inactive: -0.015	inactive: 0.042	inactive: -0.008	inactive: 0.006	inactive: -0.055	inactive: 0.033	inactive: -0.045
